Measured values reported in US7998937B2, “Flavonoid compound having an antiviral activity” (Korea Research Institute of Bioscience and Biotechnology, priority 2005, dated 2011).
For at least one compound, name, drawing or mass did not settle the structure.

Tested on: porcine epidemic diarrhea virus (PEDV)
Experiment: Antiviral activity against PEDV in Vero cells (SRB staining)
Settings: maximum dosage 100 μg/mL, 48 hours

Compound: Nc1ccn([C@@H]2CS[C@H](CO)O2)c(=O)n1 [Lamivudine, lamivudine]
- IC50 (concentration required for 50% inhibition of viruses): IC50 not attained even at the maximum dosage

Compound: C[C@@H]1O[C@@H](Oc2c(-c3ccc(O)c(O)c3)oc3cc(O)cc(O)c3c2=O)[C@H](O)[C@H](O)[C@H]1O [Quercitrin, quercitrin]
- IC50 (concentration required for 50% inhibition of viruses): IC50 not attained even at the maximum dosage.
